Measured values published in PubChem BioAssay AID1347076 (National Center for Advancing Translational Sciences (NCATS), 2019).
The campaign covered roughly 400,000 compounds. About 13,000 (3.2%) were called active. This list was built around the results that the source calls inconclusive (neither active nor inactive); the mix of calls is not that of the screen. Calls come from the whole dose curve; as a rule, active = well fitted cell-killing curve with a large enough effect; inconclusive = small, poorly fitted or top-dose-only effect, or effect the other way; inactive = flat fitted curve, though single readings scatter. Potencies beside an inconclusive call are fits to weak or partial responses and may not hold up.

Test: qHTS assay for MDR1-selective chemotherapeutics: Primary screen using the drug-selected MDR subline cells KB-V1; note: nearly all actives have a fitted effect of over 60% in size
Conditions: KB-V1 MDR cells viability, CellTiter-Glo, 72 h; activity change, negative = cytotoxicity: at 46.1 µM (top of the series)
How it was run: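 Potencies derive from concentration-effect curves fitted to normalized luminescence (CellTiter-Glo) of KB-V1 cells treated for 72 h at 37 degrees C in phenol-red-free DMEM containing 10% FBS.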
% is set by controls: 0 for no effect and ±100 for the full control effect; potency is the fitted concentration of half-maximal effect.

SMILES | Potency | activity change, negative = cytotoxicity
CN(CC(=O)Nc1cccc(F)c1)C(=O)/C=C/c1cc(Br)ccc1OC(F)F | inconclusive: 18.4 µM [cytotoxic, single point] | –
O=C(NCCN1CCOCC1)c1ccc(CSc2nc3ccncc3n2Cc2ccc(F)cc2)cc1 | inconclusive: 29.1 µM [rising, single point] | –
COc1ccc(-c2cc(-c3ccccc3)n[nH]2)c(O)c1 | inconclusive: 29.1 µM [cytotoxic, partial curve, poor fit] | –
O=C(Nc1ccccc1)c1cc(C2CCCN(C(=O)c3cccs3)C2)on1 (stereo unspecified) | inconclusive: 23.1 µM [cytotoxic, single point] | –
O=C(CSc1ccc(Cl)cc1)N1CCN(c2ccc(Cl)cc2[N+](=O)[O-])CC1 | inconclusive: 29.1 µM [cytotoxic, partial curve, poor fit] | –
COc1cccc(C(NC(C)=O)c2nc(-c3cccs3)cs2)c1 (stereo unspecified) | – | inactive: 1.14%
COc1ccccc1-n1cnnc1SCC(=O)Nc1ccccc1 | inconclusive: 20.6 µM [cytotoxic, partial curve] | –
CC(=O)Nc1sc(N/N=C/c2ccc(C)cc2)nc1-c1ccc(C)cc1 | – | inactive: 15%
COc1ccc(-n2c(C)nn(C)c2=O)c(OC)c1 | – | inactive: 3.56%
N#Cc1nc(COc2ccc(F)cc2)oc1N1CCC(Cc2ccccc2)CC1 | inconclusive: 23.1 µM [cytotoxic, partial curve] | –
O=C(NCc1cnn(-c2ccc(F)cc2)c1)C1CCC(=O)N(C2CC2)C1 (stereo unspecified) | inconclusive: 20.6 µM [rising, single point] | –
CC(C)(C)OC(=O)N(CCc1ccccc1)Cc1ccc(OCc2cccc(NC(=O)c3ccccc3)c2)cc1 | – | inactive: -12.1%
CCOc1cc(NC(=O)c2ccco2)c(OCC)cc1NC(=O)CCc1ccccc1OC | – | inactive: 3.79%
Cc1nc2c(ccc3nc(NC(=O)C4CC4)sc32)s1 | active: 20.6 µM | –
CCOC(=O)c1c(NC(C)=O)sc2c1CCC(C=NCCCN(CC)CC)=C2Sc1ccccc1 | active: 16.4 µM | –
Cn1c(=O)oc2cc(S(=O)(=O)CCC(=O)N3CCN(c4cccc(Cl)c4)CC3)ccc21 | – | inactive: -15.7%
COc1ccc(CC(=O)N/N=C(\C)c2ccccn2)cc1 | inconclusive: 2.31 µM [cytotoxic, partial curve, poor fit] | –
O=C(NCc1ccccc1)c1ccc(NC(=O)N2CC3CCCN3c3ccccc32)cc1 (stereo unspecified) | – | inactive: -5.18%
COc1ccc(C(C)=O)cc1COC(=O)Cc1cc(OC)c(OC)c(OC)c1 | – | inactive: -4.74%
O=C(CSc1nc2ccccc2c(=O)n1Cc1ccc(F)cc1)NCc1cccs1 | inconclusive: 2.91 µM [cytotoxic, partial curve, poor fit] | –
CN(C(=O)C1CCN(S(=O)(=O)c2cccs2)CC1)c1ccccc1 | – | inconclusive: -34.1% [cytotoxic]
CCc1ccc(NC(=O)CN2C(=O)c3cccc4cccc2c34)cc1 | – | inactive: 0%
Cc1ccccc1Cc1ccc(Cl)nn1 | inconclusive: 1.64 µM [rising, partial curve, poor fit] | –
O=C(CCN1CCN(c2ccccc2F)CC1)c1ccc(Br)cc1 | – | inactive: -1.25%

Given as labelled records: entries from further up
COc1ccc(CC(=O)N/N=C(\C)c2ccccn2)cc1
  Potency: inconclusive: 2.31 µM [cytotoxic, partial curve, poor fit]
O=C(NCc1ccccc1)c1ccc(NC(=O)N2CC3CCCN3c3ccccc32)cc1 (stereo unspecified)
  activity change, negative = cytotoxicity: inactive: -5.18%

Further records.

SMILES | Potency | activity change, negative = cytotoxicity
CCC(C)N1C(=O)CN(C2CCCCCC2)C(=O)C1c1ccccc1F (stereo unspecified) | inconclusive: 6.51 µM [cytotoxic, partial curve] | –
Cc1ccc(NC(=O)CN(C)C(=O)c2cccc(S(=O)(=O)NCc3ccco3)c2)cc1 | inconclusive: 29.1 µM [rising, single point] | –
CN(C)CCNC(=O)c1ccc(-c2cnn(C)c2)c2ccoc12 | – | inactive: 6.36%
Cc1ccc(C(C)NC(=O)Cn2nc(C)c([N+](=O)[O-])c2C)cc1 (stereo unspecified) | inconclusive: 16.4 µM [cytotoxic, partial curve] | –
COc1cc(/C=C2/SC(=S)N(Cc3ccccc3)C2=O)ccc1OS(C)(=O)=O | inconclusive: 29.1 µM [cytotoxic, single point] | –
CN(CC(=O)NC(=O)NCc1ccccc1)CC(=O)Nc1ccc(Cl)c(Cl)c1 | inconclusive: 14.6 µM [cytotoxic, partial curve, poor fit] | –
O=C(CCC(=O)c1cccs1)NCc1ccccc1Cl | – | inactive: 15.4%
N#Cc1cccc2c1-c1ccccc1/C2=N/NC(N)=S | inconclusive: 23.1 µM [cytotoxic, partial curve] | –
Cc1cc(C(=O)CSc2nnc(-c3ccc(F)cc3)o2)c(C)n1CC1CCCO1 (stereo unspecified) | inconclusive: 14.6 µM [cytotoxic, partial curve, poor fit] | –
O=C(C[n+]1ccccc1)c1ccc(I)cc1 | inconclusive: 0.651 µM [rising, full curve, poor fit] | –
CN(C)CCCNc1cc(N2CCN(C3CCCCC3)CC2)c2noc3c2c1C(=O)c1ccccc1-3 | inconclusive: 29.1 µM [cytotoxic, single point] | –
COc1cc2ncc3c(-c4ccc(C)cc4)nn(-c4ccc(F)cc4F)c3c2cc1OC | – | inactive: 0.748%
COc1ccc(NC(=O)N2CCCC2C(=O)NCCc2ccccc2)cc1 (stereo unspecified) | inconclusive: 2.91 µM [cytotoxic, partial curve, poor fit] | –
COc1ccccc1CNc1ccccc1F | inconclusive: 4.61 µM [rising, full curve] | –
O=C(Nc1ccncc1)c1cc(C2CCCCN2C(=O)CCCc2ccccc2)on1 (stereo unspecified) | – | inactive: -15.3%
CCOC(=O)N1CCC(Nc2c([N+](=O)[O-])cc(C(=O)O)cc2[N+](=O)[O-])CC1 | inconclusive: 23.1 µM [rising, single point] | –
CCCN1C(=O)C(=O)c2cc(C)ccc21 | active: 8.2 µM | –
CCOc1ccc(Cc2onc3c2C(=O)CC(C)(C)C3)cc1OCC | inconclusive: 11.6 µM [cytotoxic, partial curve] | –
COc1ccc(Cl)cc1NC(=O)CNc1ccccc1F | inconclusive: 29.1 µM [cytotoxic, single point] | –
CC(C)=C1C2CCC1C1C(=O)N(c3nc(-c4ccc(C(C)C)cc4)c(C)s3)C(=O)C21 (stereo unspecified) | inconclusive: 23.1 µM [cytotoxic, single point] | –
O=c1ccc2nc3ccccc3sc-2c1 | – | inactive: -24.2%
Nn1c(Nc2ccccc2)nc2sc3c(c2c1=O)CCC3 | inconclusive: 23.1 µM [cytotoxic, partial curve, poor fit] | –
CCC(C)(C)NC(=O)C(c1cccn1C)N(Cc1ccc(OC)cc1)C(=O)Cn1nnc2ccccc21 (stereo unspecified) | inconclusive: 29.1 µM [cytotoxic, single point] | –
O=C(/C=C/c1ccccc1)NCC(=O)N/N=C/c1ccccc1[N+](=O)[O-] | – | inactive: -4.57%

In another format: results already given.
CN(C)CCCNc1cc(N2CCN(C3CCCCC3)CC2)c2noc3c2c1C(=O)c1ccccc1-3
  Potency: inconclusive: 29.1 µM [cytotoxic, single point]
COc1ccc(NC(=O)N2CCCC2C(=O)NCCc2ccccc2)cc1 (stereo unspecified)
  Potency: inconclusive: 2.91 µM [cytotoxic, partial curve, poor fit]

Additional entries

SMILES | Potency | activity change, negative = cytotoxicity
O=[N+]([O-])c1cc(-c2ncccn2)c([N+](=O)[O-])s1 | inconclusive: 16.4 µM [cytotoxic, single point] | –
NS(=O)(=O)c1cccc(NC(=O)CCSc2ccc(Cl)cc2)c1 | – | inactive: -14.8%
Cc1c(C(=O)NCc2ccccc2Cl)sc2ncnc(N(C)C3CCCCC3)c12 | inconclusive: 32.6 µM [cytotoxic, single point] | –
COc1ccccc1NC(=O)N1CCN(C)CC1 | inconclusive: 4.11 µM [rising, partial curve] | –
CCOC(=O)c1c(C)n(-c2ccccc2)c2ccc(OC(=O)COc3ccc(Cl)cc3)cc12 | – | inactive: 0%
CCc1ccc(NCc2nc3ccccc3c(=O)[nH]2)cc1 | inconclusive: 20.6 µM [cytotoxic, partial curve] | –
O=C(CNC(=O)c1cccs1)NCC(=O)OCC(=O)c1ccc([N+](=O)[O-])cc1 | inconclusive: 23.1 µM [rising, single point] | –
CCS(=O)(=O)N(CC(=O)Nc1cccc2ccccc12)c1ccc(OC)cc1 | active: 13 µM | –
CC(NC(=O)CN1C(=O)NC2(CCc3ccccc32)C1=O)c1ccccc1 (stereo unspecified) | inconclusive: 4.11 µM [rising, full curve, poor fit] | –
Cc1ccc(C(=O)Cc2ccccc2)o1 | – | inactive: 25.9%
Clc1cccc(CSc2nnc(-c3cccnc3)n2Cc2ccco2)c1 | inconclusive: 29.1 µM [cytotoxic, single point] | –
CCOC(=O)c1cc2oc(C)cc2n1CC(=O)OC1CCCCC1 | inconclusive: 18.4 µM [cytotoxic, single point] | –
Cc1ccc(CN2C(=O)c3ccccc3Sc3ccc(C(=O)NCCN4CCOCC4)cc32)cc1 | inconclusive: 29.1 µM [cytotoxic, single point] | –
CC(C)Oc1ccc(CNC(=O)CCCN2C(=O)C(c3ccccc3)Oc3cccnc32)cc1 (stereo unspecified) | – | inconclusive: -10.5%
Cc1cc(C)c2ccc(NN)nc2c1O | inconclusive: 16.4 µM [cytotoxic, single point] | –
O=C(CN1CCSC1=NCc1ccccc1)c1ccc(Cl)cc1 | active: 16.4 µM | –
Cc1ccc(-c2nnnn2CS(=O)(=O)c2ccccc2)cc1 | inconclusive: 20.6 µM [cytotoxic, single point] | –
CCCCC(C(=O)NC(C)c1ccccc1)C(=O)NC(C)c1ccccc1 (stereo unspecified) | inconclusive: 3.66 µM [cytotoxic, partial curve, poor fit] | –
CCc1ccc(/C=N/n2c(C)cc(C)c(C#N)c2=O)cc1 | active: 9.2 µM | –
NS(=O)(=O)c1cccc(NC(=O)CSc2nc3nc(-c4cccs4)cc(C(F)(F)F)c3c(=O)[nH]2)c1 | – | inactive: 4.42%
Oc1ccc(/C=N/Nc2ccnc3cc(Cl)ccc23)c(O)c1O | – | inactive: 0%
COc1ccc([N+](=O)[O-])cc1NC(=O)C(C)OC(=O)Cc1ccc(OC)c(OC)c1 (stereo unspecified) | active: 14.6 µM | –
COc1ccc(-n2ncc3c(=O)n(CC(=O)N4CCCc5ccccc54)cnc32)cc1 | inconclusive: 6.51 µM [cytotoxic, partial curve, poor fit] | –
